# According to patent publication US20230056497A1, “CD206 Modulators Their Use and Methods for Preparation” (The United States of America, As Represented by the …, priority 2019, published 2023):
# Entries after “also recorded” stand apart in the source; their conditions may differ. Some of these results come from one statement about several compounds together.
# Tested on: M2 macrophages
# Assay: Anti-cell viability screening: reduction of M2 macrophage cell viability (Percentage Relative Cell Viability versus Log Molar Concentration)
# Assay type: cell-based
# Protocol: Assays were conducted in a 96-well black solid-bottom plate with a final assay volume of 100 μL.
smiles,measurement,value
CC(=O)c1c(C)oc2ccc(N(C(=O)Oc3ccccc3)[S+](=O)(O)c3ccccc3)cc12 [Compound 3],selective anti-M2 macrophage activity determined by reduction of M2 macrophage cell viability,selectively target M2 macrophages; also recorded: selective anti-M2 macrophage activity
